# Microarray screen: hit calls

Calls as published in the ROBIN set (doi:10.1002/anie.202211358).

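Compounds were printed on reactive glass slides in duplicate spots, a dye-labelled oligonucleotide was laid over them, and the fluorescence left after washing was read. The data file lists only calls. An earlier report of the laboratory on the PreQ1, TPP and SAM-II riboswitches (doi:10.1038/s41467-019-09493-3) used 1 µM RNA for 2 h and required a mean Z-score above 3 (spot signal-to-noise against the whole library), a score well above that on a control array, and duplicate spots agreeing (coefficient of variation under 100); it then also set aside compounds that hit other targets, which this list keeps. The cut-offs behind this list may differ. A missing hit is not proof of no binding, and a hit is not a measured affinity.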 Key: hit = hit, no hit = tested without a hit. The compounds are a random part of those screened. A target missing from an entry has no call listed here.

Targets (5′ to 3′):
T1: TPP riboswitch RNA three-way junction, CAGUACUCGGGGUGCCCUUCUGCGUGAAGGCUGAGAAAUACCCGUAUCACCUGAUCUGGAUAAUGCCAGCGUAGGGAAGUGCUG. Hit rate about 0.7% of about 24,000 compounds.
T2: SAM-II riboswitch RNA pseudoknot, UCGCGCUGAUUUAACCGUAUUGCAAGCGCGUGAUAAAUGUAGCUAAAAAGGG. Hit rate about 1% of about 21,000 compounds.
T3: PreQ1 riboswitch RNA pseudoknot, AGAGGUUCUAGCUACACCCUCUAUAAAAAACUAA. From B. subtilis. Hit rate about 0.7% of about 24,000 compounds.

* c1ccc2c(CCNCc3ccncc3)c[nH]c2c1 | T1: no hit; T2: no hit; T3: no hit
* Cc1cccnc1CN(Cc1ccccc1)C(=O)C1CC2(CCNCC2)CN1 (stereo not shown) | T1: no hit; T2: no hit; T3: no hit
* CC(C)Cc1nc(CN(C)C2CCC3(CCNCC3)CC2)no1 | T1: no hit; T2: no hit; T3: no hit
* Cc1ccc2nc3c(c(Nc4cccc(O)c4)c2c1)CCC3 | T1: no hit; T2: no hit; T3: no hit
* O=C(CNCCCN1CCOCC1)NCc1ccccc1F | T1: no hit; T2: no hit; T3: no hit
* Cl.Cn1nnnc1SCCCNCC=Cc1ccc(Cl)cc1 | T1: no hit; T2: no hit; T3: no hit
* CCOC(=O)N1CCC(N[C@@H]2CC[C@@H]2NC(=O)c2nc(C)oc2C)CC1 | T1: no hit; T2: no hit; T3: no hit
* CCOc1ccc(Nc2ncnc3c2nc2n3CCCC2)cc1 | T1: no hit; T3: no hit
* O=c1[nH]cc(CCNC2CCC3(CCNCC3)CC2)c(=O)[nH]1 | T1: no hit; T2: no hit; T3: no hit
* C=CCNC(=O)c1sc(N(CC)CC)nc1N | T1: no hit; T2: no hit; T3: no hit
* CCN1CC2(CCN(CC[C@H](O)c3ccccc3)CC2)OC1=O | T1: no hit; T2: no hit; T3: no hit
* CCc1cc2c(Nc3cccc(C(C)O)c3)ncnc2s1 (stereo not shown) | T1: no hit; T2: no hit; T3: no hit
* N[C@H]1CN(CCCOc2ccccc2)C[C@@H]1C1CC1 | T1: no hit; T2: no hit; T3: no hit
* CCOc1ccccc1Nc1nc2ccccc2c2nncn12 | T1: no hit; T2: no hit; T3: no hit
* C[C@](O)(CS(=O)(=O)c1ccc(F)cc1)C(=O)Nc1ccc(C#N)c(C(F)(F)F)c1 | T1: no hit; T2: no hit; T3: no hit
* O=C(O)C1CN(c2nnnn2-c2ccc(Oc3ccccc3)cc2)CCN1 (stereo not shown) | T1: no hit; T2: hit; T3: no hit
* Cc1noc(C)c1-c1nc(C2CCCC2)nn1CCO | T1: no hit; T2: no hit; T3: no hit
* O=S(=O)(c1ccccc1)c1nc(-c2ccccc2F)oc1NC1CC1 | T1: no hit; T3: no hit
* CCOC(=O)c1c(N)nn(C(=O)c2ccccc2F)c1-c1ccccc1 | T1: no hit; T2: no hit; T3: no hit
* CSCC(=O)N1C[C@H](CO)C[C@H](CN2CCCC2)C1 | T1: no hit; T2: no hit; T3: no hit
* CCCC(O)c1nc2ccccc2n1CCOc1ccc(Cl)cc1 (stereo not shown) | T1: no hit; T3: no hit
* CC(C)(O)c1cc2nc(-c3cnc(N)nc3)nc(N3CCOCC3)c2s1 | T1: no hit; T2: no hit; T3: no hit
* Cc1nccn1CC(O)COc1ccc(Br)cc1 (stereo not shown) | T1: no hit; T2: no hit; T3: no hit
* CCn1c(C(=O)O)c(CNCCc2ccccc2)c2ccccc21 | T1: no hit; T3: no hit
* O=[N+]([O-])c1ccc(Cl)cc1NCC1CCCO1 (stereo not shown) | T1: no hit; T2: no hit; T3: no hit
* CSc1nc(NCCCN(C)C)c(C#N)c(-c2ccc(Cl)cc2)n1 | T1: no hit; T3: no hit
* O=C1CCCN1CCCNc1ncnc2onc(-c3ccc(F)cc3)c12 | T1: no hit; T3: no hit
* Nc1nc(C23CC4CC(CC(C4)C2)C3)cs1 | T1: no hit; T2: no hit; T3: no hit
* COCCNc1nc2c(c(=O)n(C)c(=O)n2C)n1Cc1ccccc1Cl | T1: no hit; T2: no hit; T3: no hit
* COc1ccc(C(=O)c2sc3nc4c(c(-c5cccnc5)c3c2N)CCCC4)cc1OC | T1: no hit; T2: no hit; T3: no hit
* NC(=S)Nc1cccc(Cl)c1 | T1: no hit; T2: no hit; T3: no hit
* Cn1c(=O)c2c(-c3ccccc3F)n(CCO)cc2n(C)c1=O | T1: no hit; T2: no hit; T3: no hit
* COc1cc2nc(N3CCN(C(=O)c4ccco4)CC3)nc(N)c2cc1OC | T1: no hit; T2: no hit; T3: no hit
* Cc1ccc(-c2nc3ccccn3c2Nc2ccc(F)cc2)o1 | T1: no hit; T2: no hit; T3: no hit
* CCOc1ccc(-c2noc(-c3nnn(-c4cc(Cl)ccc4OC)c3N)n2)cc1 | T1: no hit; T3: no hit
* Cc1cccc(C)c1NC(=O)C1(N(Cc2ccccc2)C(=O)CO)CCCCC1 | T1: no hit; T2: no hit; T3: no hit
* C=C1C[C@H]2[C@H]3CCC(=O)[C@@]3(C)CC[C@@H]2[C@@]2(C)C=CC(=O)C=C12 | T1: no hit; T2: no hit; T3: no hit

3 of the entries, repeated:

SMILES	T1	T2	T3
COc1cc2nc(N3CCN(C(=O)c4ccco4)CC3)nc(N)c2cc1OC	no hit	no hit	no hit
Cc1cccnc1CN(Cc1ccccc1)C(=O)C1CC2(CCNCC2)CN1 (stereo not shown)	no hit	no hit	no hit
Cn1c(=O)c2c(-c3ccccc3F)n(CCO)cc2n(C)c1=O	no hit	no hit	no hit